The text below walks through data of the supplement of paper PMC4604168 (melanoma cell lines).

SMILES strings stand for the structures. The list shows a part of the results. Single values are uncertain, as repeats are few or missing.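 Cells were imaged in 1,536-well plates, and nuclei stained with an antibody against cleaved PARP were counted against all DNA-stained nuclei to give the apoptosis fraction. Screening doses were chosen to leave most cells alive, and resting and induced cleaved-PARP levels differ strongly between cell lines.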

The test system of this assay is CBRC014 (line from a melanoma biopsy). The assay is described as follows: cleaved PARP positive nuclei fraction relative to DMSO control; melanoma cells; higher = more apoptosis. Particulars: library dose: low library concentration; 72 h.
As for `C[C@@H](Oc1cc(-c2cnn(C3CCNCC3)c2)cnc1N)c1c(Cl)ccc(F)c1Cl` [Crizotinib] + CN(NC(=O)CC(=O)NN(C)C(=S)c1ccccc1)C(=S)c1ccccc1 [STA4783] (first compound 0.2 µM, partner dose 0.006 µM), the “cleaved PARP positive nuclei fraction” value amounted to 648%.
As to `CC(C)C[C@H](NC(=O)[C@H](Cc1ccccc1)NC(=O)c1cnccn1)B(O)O` [Bortezomib] + COc1cc2c(Oc3ccc4[nH]c(C)cc4c3F)ncnc2cc1OCCCN1CCCC1 [cediranib] (first compound 0.001 µM, partner dose 0.4 µM), the “cleaved PARP positive nuclei fraction” value was 157%.
Consider `Cc1cc(Nc2cc(N3CCN(C)CC3)nc(/C=C/c3ccccc3)n2)n[nH]1` + Cc1cc(N2CCOCC2)cc2[nH]c(-c3c(NC[C@@H](O)c4cccc(Cl)c4)cc[nH]c3=O)nc12 [BMS536924] (first compound 0.04 µM, partner dose 0.2 µM), for which the “cleaved PARP positive nuclei fraction” value worked out at 107%.
In the case of `C[C@@H](Oc1cc(-c2cnn(C3CCNCC3)c2)cnc1N)c1c(Cl)ccc(F)c1Cl` [Crizotinib] + CC1(C)NC(=O)N(c2ccc([N+](=O)[O-])c(C(F)(F)F)c2)C1=O [nilutamide] (first compound 0.2 µM, partner dose 1 µM) it was 87.2%.
As for `Cn1c(=O)n(-c2ccc(C(C)(C)C#N)cc2)c2c3cc(-c4cnc5ccccc5c4)ccc3ncc21` + NC(=O)Nc1cc(-c2cccc(F)c2)sc1C(=O)N[C@H]1CCCNC1 [AZD7762] (first compound 0.004 µM, partner dose 0.02 µM), the “cleaved PARP positive nuclei fraction” value is 102%.
